# Experimental data: paper PMC12317064
# Protein sequences, listed by entry. Tags and fused reporters are not part of them.
# UniProt Q9VUX2: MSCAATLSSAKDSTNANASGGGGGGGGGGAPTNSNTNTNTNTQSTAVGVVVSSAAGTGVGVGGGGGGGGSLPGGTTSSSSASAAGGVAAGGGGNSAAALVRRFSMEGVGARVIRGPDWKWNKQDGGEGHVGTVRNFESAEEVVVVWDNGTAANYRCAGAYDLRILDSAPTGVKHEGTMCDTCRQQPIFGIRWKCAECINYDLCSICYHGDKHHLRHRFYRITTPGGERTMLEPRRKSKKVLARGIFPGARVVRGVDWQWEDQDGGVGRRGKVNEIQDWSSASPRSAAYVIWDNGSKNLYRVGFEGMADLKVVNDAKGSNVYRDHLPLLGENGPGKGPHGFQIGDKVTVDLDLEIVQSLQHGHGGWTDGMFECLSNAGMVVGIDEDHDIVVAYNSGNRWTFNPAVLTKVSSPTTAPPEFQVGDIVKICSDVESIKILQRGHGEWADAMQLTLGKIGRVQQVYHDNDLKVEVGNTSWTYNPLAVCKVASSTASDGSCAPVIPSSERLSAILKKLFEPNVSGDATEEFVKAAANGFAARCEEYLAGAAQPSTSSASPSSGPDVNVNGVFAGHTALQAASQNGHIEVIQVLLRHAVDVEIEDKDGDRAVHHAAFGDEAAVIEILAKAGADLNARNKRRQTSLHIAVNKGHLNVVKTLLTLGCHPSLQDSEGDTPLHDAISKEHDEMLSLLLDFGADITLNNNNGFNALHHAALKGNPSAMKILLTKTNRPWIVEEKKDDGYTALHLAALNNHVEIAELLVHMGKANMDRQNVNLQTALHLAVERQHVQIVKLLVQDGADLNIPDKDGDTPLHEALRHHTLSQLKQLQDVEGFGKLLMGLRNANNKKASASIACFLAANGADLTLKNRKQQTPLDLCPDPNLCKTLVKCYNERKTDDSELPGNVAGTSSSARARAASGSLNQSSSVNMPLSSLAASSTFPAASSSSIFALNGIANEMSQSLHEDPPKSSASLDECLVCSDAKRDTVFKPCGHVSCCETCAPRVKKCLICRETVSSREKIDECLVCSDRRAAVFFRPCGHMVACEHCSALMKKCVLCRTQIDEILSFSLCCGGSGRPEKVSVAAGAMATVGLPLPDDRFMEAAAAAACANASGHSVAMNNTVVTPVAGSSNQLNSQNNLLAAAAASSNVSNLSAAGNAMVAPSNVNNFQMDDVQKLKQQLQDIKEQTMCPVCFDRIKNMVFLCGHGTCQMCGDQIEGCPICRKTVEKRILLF
# Results are given in words; binding and its absence hold for the method and conditions named. Binding seen in cells or lysates may run through a third protein. Some results given as binding are weak or reduced against the parent protein; the word gives no strength. Sequences can lack the tags named with a protein.
# T1: Flag-tagged AP-2α (Drosophila) (UniProt P91926)
# T1 sequence: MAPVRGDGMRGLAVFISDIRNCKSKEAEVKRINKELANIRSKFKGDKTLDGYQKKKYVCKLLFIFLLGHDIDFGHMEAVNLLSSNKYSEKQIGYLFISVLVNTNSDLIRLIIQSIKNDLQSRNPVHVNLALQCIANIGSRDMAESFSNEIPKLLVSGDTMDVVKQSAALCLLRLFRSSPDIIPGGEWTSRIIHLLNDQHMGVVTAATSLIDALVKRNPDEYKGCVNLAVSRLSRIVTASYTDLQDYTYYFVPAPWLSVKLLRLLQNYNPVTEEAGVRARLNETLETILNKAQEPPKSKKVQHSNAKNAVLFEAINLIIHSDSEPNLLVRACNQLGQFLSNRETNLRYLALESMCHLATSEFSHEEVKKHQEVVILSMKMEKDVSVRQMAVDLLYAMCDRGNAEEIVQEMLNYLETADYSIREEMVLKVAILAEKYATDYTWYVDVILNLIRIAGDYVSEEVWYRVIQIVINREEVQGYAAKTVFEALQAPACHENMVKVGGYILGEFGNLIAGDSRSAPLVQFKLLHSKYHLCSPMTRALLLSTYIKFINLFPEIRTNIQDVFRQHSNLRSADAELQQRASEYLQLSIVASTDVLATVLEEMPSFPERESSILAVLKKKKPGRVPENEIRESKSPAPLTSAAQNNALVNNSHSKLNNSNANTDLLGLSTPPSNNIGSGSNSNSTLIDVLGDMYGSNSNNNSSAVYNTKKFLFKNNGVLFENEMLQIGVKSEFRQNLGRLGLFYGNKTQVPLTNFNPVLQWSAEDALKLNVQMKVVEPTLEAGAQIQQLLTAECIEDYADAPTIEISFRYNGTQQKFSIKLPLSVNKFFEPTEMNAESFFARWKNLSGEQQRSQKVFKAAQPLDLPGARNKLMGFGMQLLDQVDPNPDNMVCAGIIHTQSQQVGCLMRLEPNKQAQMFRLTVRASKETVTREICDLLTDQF
# B1: HA-tagged AP-2α (protein, UniProt P91926 1-940)
# chain: T1 sequence
# Key:
# [1] = target: T1, Flag-tagged AP-2α (Drosophila); assay: co-IP; S2 cells co-transfected with Flag- and HA-tagged proteins, harvested after 72 h; NP-40 buffer (50 mM Tris pH 7.4, 150 mM NaCl, 1% NP-40); primary antibody overnight at 4 °C, Protein A/G magnetic beads; western blotting
# [2] = target: Flag-tagged Mib1 (Drosophila) (UniProt Q9VUX2); assay: as above
molecule,measurement,setting,value
HA-tagged Mib1 (from UniProt Q9VUX2 1-1226) (enzyme),binding,[1],binds
B1,binding,[2],binds
